In the supplement of paper PMC12823440, “Inhibitors supercharge kinase turnover through native proteolytic circuits” (Nature, 2025):
Where a name gives a salt, the structure may show the parent alone. The list shows a part of the results. The calls rarely recur for the same compound in another form.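 In K562 cells expressing nanoluciferase-fused kinases, luminescence was recorded at 4 h intervals between 2 and 18 h, normalized as percent of control with DMSO at 100% and a positive control at 0%. A significant (2 sigma) signal drop marks a time point as decreased. The authors' rule for a hit is not shown and takes in more than the number of time points.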

By UniProt entry, the sequences of proteins in these tests, tags left out. Where a name states a change or a piece, a line headed by the entry shows the natural chain unless it says otherwise.
UniProt Q13546: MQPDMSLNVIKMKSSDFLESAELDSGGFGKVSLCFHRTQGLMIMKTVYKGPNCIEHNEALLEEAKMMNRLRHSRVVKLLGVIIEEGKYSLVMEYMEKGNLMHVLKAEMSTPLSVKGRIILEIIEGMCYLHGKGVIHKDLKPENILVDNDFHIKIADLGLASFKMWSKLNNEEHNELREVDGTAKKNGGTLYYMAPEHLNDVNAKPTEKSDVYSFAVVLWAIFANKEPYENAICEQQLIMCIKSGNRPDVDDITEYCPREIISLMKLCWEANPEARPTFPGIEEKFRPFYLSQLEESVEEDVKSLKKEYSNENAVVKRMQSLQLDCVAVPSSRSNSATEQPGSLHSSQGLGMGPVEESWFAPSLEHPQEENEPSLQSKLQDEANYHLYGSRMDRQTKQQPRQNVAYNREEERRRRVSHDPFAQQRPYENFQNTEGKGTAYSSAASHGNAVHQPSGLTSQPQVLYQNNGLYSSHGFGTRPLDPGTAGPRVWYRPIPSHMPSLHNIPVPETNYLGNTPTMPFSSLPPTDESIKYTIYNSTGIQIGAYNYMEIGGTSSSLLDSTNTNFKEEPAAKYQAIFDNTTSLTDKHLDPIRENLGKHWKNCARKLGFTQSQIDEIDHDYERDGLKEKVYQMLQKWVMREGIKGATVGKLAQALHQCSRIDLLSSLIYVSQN

Each compound was assayed against RIPK1 (UniProt Q13546) (assay: number of time points (of 5) at which kinase-Nluc abundance scored as decreased, DMSO-normalised (count); higher = more persistent destabilization). Details: K562; 2-18 h.

Compound | number of time points
CCC[C@H](C)Oc1nc(N)c2[nH]c(=O)n(CCCCCN3CCCCC3)c2n1 (10 µM) | 0
CC(C)(Oc1ccc(Cl)cc1)C(=O)Nc1ccc(OCc2ccc(C#N)cc2)cc1 [AMPK activator 4] (10 µM) | 0
Cc1cc(N2CCOCC2)ccc1Nc1nc(NC2CCCCC2)c2[nH]cnc2n1 (10 µM) | 0
CC(ONC(=O)c1cc(C(F)(F)F)cc(C(F)(F)F)c1)C(=O)Nc1ccc(Cl)cc1 (stereo not given) (2.5 µM) | 0
O=S(=O)(c1ccc(O)cc1O)N1Cc2cc(O)cc(O)c2C1 (10 µM) | 0
CN1CCN(c2ccc(-n3cc(-c4ccncc4OCC4CCNCC4)cn3)cc2)CC1 [MELK-8a (hydrochloride)] (10 µM) | 2
CCCCC(=O)OCC(=O)[C@]1(O)Cc2c(O)c3c(c(O)c2[C@@H](O[C@H]2C[C@H](NC(=O)C(F)(F)F)[C@H](O)[C@H](C)O2)C1)C(=O)c1c(OC)cccc1C3=O [Valrubicin] (10 µM) | 0
CC(C)=CCC[C@](C)(O[C@@H]1O[C@H](CO[C@@H]2O[C@H](CO)[C@@H](O)[C@H](O)[C@H]2O)[C@@H](O)[C@H](O)[C@H]1O)[C@H]1CC[C@]2(C)[C@@H]1[C@H](O)C[C@@H]1[C@@]3(C)CC[C@H](O[C@@H]4O[C@H](CO)[C@@H](O)[C@H](O)[C@H]4O[C@@H]4O[C@H](CO)[C@@H](O)[C@H](O)[C@H]4O)C(C)(C)[C@@H]3CC[C@]12C [Ginsenoside Rb1] (10 µM) | 0
O=c1cc(-c2ccc(O[C@@H]3O[C@H](CO)[C@@H](O)[C@H](O)[C@H]3O)cc2)oc2cc(O)c([C@@H]3O[C@H](CO)[C@@H](O)[C@H](O)[C@H]3O[C@@H]3OC[C@H](O)[C@H](O)[C@H]3O)c(O)c12 [Vaccarin] (10 µM) | 0
Nc1ccc(Sc2nc3ccccc3s2)c(Cl)c1 [KRAS inhibitor-9] (10 µM) | 0
COc1ccc2cc1Oc1ccc(cc1)C[C@H]1c3cc(c(OC)cc3CCN1C)Oc1c(O)c(OC)cc3c1[C@H](C2)N(C)CC3 [Fangchinoline] (2.5 µM) | 0
Nc1nccc(Oc2ccc3c(C(=O)Nc4cccc(C(F)(F)F)c4)cccc3c2)n1 (10 µM) | 0
CN1C(=O)N[C@@H](Cc2c[nH]c3c(Cl)cccc23)C1=O [Necrostatin 2 (S enantiomer)] (10 µM) | 0
Cc1ncc(-c2cc(F)c(O)c(F)c2)cc1-c1cc(F)c(O)c(F)c1 (10 µM) | 0
N=C(NC(=N)N1CCCC1)Nc1ccc(OC(F)(F)F)cc1 (10 µM) | 0

Part of the list above, set out differently.

| Compound | number of time points |
| --- | --- |
| O=c1cc(-c2ccc(O[C@@H]3O[C@H](CO)[C@@H](O)[C@H](O)[C@H]3O)cc2)oc2cc(O)c([C@@H]3O[C@H](CO)[C@@H](O)[C@H](O)[C@H]3O[C@@H]3OC[C@H](O)[C@H](O)[C@H]3O)c(O)c12 [Vaccarin] (10 µM) | 0 |
| Nc1ccc(Sc2nc3ccccc3s2)c(Cl)c1 [KRAS inhibitor-9] (10 µM) | 0 |
| COc1ccc2cc1Oc1ccc(cc1)C[C@H]1c3cc(c(OC)cc3CCN1C)Oc1c(O)c(OC)cc3c1[C@H](C2)N(C)CC3 [Fangchinoline] (2.5 µM) | 0 |
